According to the supplement of paper PMC4604168 (melanoma cell lines):
Some of the results follow. Repeats are few or missing, and single values can be far off.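 Cells were imaged in 1,536-well plates, and nuclei stained with an antibody against cleaved PARP were counted against all DNA-stained nuclei to give the apoptosis fraction. Screening doses were chosen to leave most cells alive, and resting and induced cleaved-PARP levels differ strongly between cell lines.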

Assays:
Assay in all cases: cleaved PARP positive nuclei fraction relative to DMSO control; melanoma cells; higher = more apoptosis
Settings in all cases: library dose: low library concentration; 72 h
COLO792 = system: COLO792
COLO800 = system: COLO800
COLO829 = system: COLO829
G361 = system: G361
IPC-298 = system: IPC-298
IST-MEL1 = system: IST-MEL1
LB2518-MEL = system: LB2518-MEL
LOXIMVI = system: LOXIMVI
MEL-HO = system: MEL-HO

| Structure (SMILES) | cleaved PARP positive nuclei fraction (COLO792) [%] | cleaved PARP positive nuclei fraction (COLO800) [%] | cleaved PARP positive nuclei fraction (COLO829) [%] | cleaved PARP positive nuclei fraction (G361) [%] | cleaved PARP positive nuclei fraction (IPC-298) [%] | cleaved PARP positive nuclei fraction (IST-MEL1) [%] | cleaved PARP positive nuclei fraction (LB2518-MEL) [%] | cleaved PARP positive nuclei fraction (LOXIMVI) [%] | cleaved PARP positive nuclei fraction (MEL-HO) [%] |
| --- | --- | --- | --- | --- | --- | --- | --- | --- | --- |
| CC(=O)O[C@@]12CO[C@@H]1C[C@H](O)[C@@]1(C)C(=O)[C@H](O)C3=C(C)[C@@H](OC(=O)[C@H](O)[C@@H](NC(=O)OC(C)(C)C)c4ccccc4)C[C@@](O)([C@@H](OC(=O)c4ccccc4)[C@H]21)C3(C)C [Docetaxel] + C=CCn1c(=O)c2cnc(Nc3ccc(N4CCN(C)CC4)cc3)nc2n1-c1cccc(C(C)(C)O)n1 [MK1775] (first compound 0.0001 µM, partner dose 0.02 µM) | 432 | 178 | 144 | 205 | 372 | 79.1 | 144 | 34.1 | 239 |
| CC(=O)O[C@@]12CO[C@@H]1C[C@H](O)[C@@]1(C)C(=O)[C@H](O)C3=C(C)[C@@H](OC(=O)[C@H](O)[C@@H](NC(=O)OC(C)(C)C)c4ccccc4)C[C@@](O)([C@@H](OC(=O)c4ccccc4)[C@H]21)C3(C)C [Docetaxel] + CC1(C)NC(=O)N(c2ccc([N+](=O)[O-])c(C(F)(F)F)c2)C1=O [nilutamide] (first compound 0.0001 µM, partner dose 1 µM) | 548 | 342 | 484 | 752 | 193 | 94.1 | 71.6 | 133 | 159 |
| CCN(CC)CCNC(=O)c1c(C)[nH]c(/C=C2\C(=O)Nc3ccc(F)cc32)c1C [sunitinib] + Cc1cc(N2CCOCC2)cc2[nH]c(-c3c(NC[C@@H](O)c4cccc(Cl)c4)cc[nH]c3=O)nc12 [BMS536924] (first compound 0.4 µM, partner dose 0.2 µM) | 118 | 179 | 75.5 | 156 | 60.3 | 106 | 211 | 223 | 46.7 |
| CS(=O)(=O)c1ccc(C(=O)Nc2ccc(Cl)c(-c3ccccn3)c2)c(Cl)c1 [vismodegib] + NCC(=O)Nc1ccc(-n2nc(C(F)(F)F)cc2-c2ccc3c(ccc4ccccc43)c2)cc1 [OSU03012] (first compound 1 µM, partner dose 1 µM) | 62.6 | 91.9 | 139 | 127 | 418 | 357 | 40.2 | 150 | 191 |
| COc1ccc(C2=N[C@@H](c3ccc(Cl)cc3)[C@@H](c3ccc(Cl)cc3)N2C(=O)N2CCNC(=O)C2)c(OC(C)C)c1 [Nutlin-3] + CC(C)(C)c1cnc(CSc2cnc(NC(=O)C3CCNCC3)s2)o1 [SNS-032] (first compound 0.1 µM, partner dose 0.01 µM) | 73.9 | 179 | 87.9 | 155 | 188 | 90.6 | 104 | 31.6 | 76.3 |
| CN(c1ncccc1CNc1nc(Nc2ccc3c(c2)CC(=O)N3)ncc1C(F)(F)F)S(C)(=O)=O + COc1cc(Nc2ncc(F)c(Nc3ccc4c(n3)NC(=O)C(C)(C)O4)n2)cc(OC)c1OC [Tamatinib] (first compound 0.08 µM, partner dose 0.4 µM) | 181 | 76.6 | 130 | 84.3 | 106 | 69.1 | 199 | 158 | 144 |
| CCN(CC)CCNC(=O)c1c(C)[nH]c(/C=C2\C(=O)Nc3ccc(F)cc32)c1C [sunitinib] + NC(=O)Nc1cc(-c2cccc(F)c2)sc1C(=O)N[C@H]1CCCNC1 [AZD7762] (first compound 0.4 µM, partner dose 0.02 µM) | 117 | 48.4 | 44 | 157 | 81 | 59.6 | 73.7 | 103 | 85 |
| CC(=O)O[C@@]12CO[C@@H]1C[C@H](O)[C@@]1(C)C(=O)[C@H](O)C3=C(C)[C@@H](OC(=O)[C@H](O)[C@@H](NC(=O)OC(C)(C)C)c4ccccc4)C[C@@](O)([C@@H](OC(=O)c4ccccc4)[C@H]21)C3(C)C [Docetaxel] + NC(=O)Nc1cc(-c2cccc(F)c2)sc1C(=O)N[C@H]1CCCNC1 [AZD7762] (first compound 0.0001 µM, partner dose 0.02 µM) | 590 | 298 | 253 | 424 | 210 | 205 | 350 | 101 | 145 |
| COc1ccc(C2=N[C@@H](c3ccc(Cl)cc3)[C@@H](c3ccc(Cl)cc3)N2C(=O)N2CCNC(=O)C2)c(OC(C)C)c1 [Nutlin-3] + O=C(Nc1cccc(Cl)c1)Nc1ncc(CCNc2ncnc3ccsc23)s1 [SNS314] (first compound 0.1 µM, partner dose 0.0008 µM) | 27.3 | 37.6 | 98 | 63.8 | 90.6 | 194 | 87.6 | 497 | 135 |
| C[C@]1(O)C[C@@H](c2nc(-c3ccc4ccc(-c5ccccc5)nc4c3)c3c(N)nccn32)C1 + NCC(=O)Nc1ccc(-n2nc(C(F)(F)F)cc2-c2ccc3c(ccc4ccccc43)c2)cc1 [OSU03012] (first compound 0.4 µM, partner dose 1 µM) | 274 | 111 | 273 | 117 | 216 | 51.4 | 49.5 | 77.3 | 70.4 |

Complete entries, quoted from the list. Values in the order: cleaved PARP positive nuclei fraction (COLO792) [%]	cleaved PARP positive nuclei fraction (COLO800) [%]	cleaved PARP positive nuclei fraction (COLO829) [%]	cleaved PARP positive nuclei fraction (G361) [%]	cleaved PARP positive nuclei fraction (IPC-298) [%]	cleaved PARP positive nuclei fraction (IST-MEL1) [%]	cleaved PARP positive nuclei fraction (LB2518-MEL) [%]	cleaved PARP positive nuclei fraction (LOXIMVI) [%]	cleaved PARP positive nuclei fraction (MEL-HO) [%]
COc1ccc(C2=N[C@@H](c3ccc(Cl)cc3)[C@@H](c3ccc(Cl)cc3)N2C(=O)N2CCNC(=O)C2)c(OC(C)C)c1 [Nutlin-3] + O=C(Nc1cccc(Cl)c1)Nc1ncc(CCNc2ncnc3ccsc23)s1 [SNS314] (first compound 0.1 µM, partner dose 0.0008 µM) as listed: 27.3	37.6	98	63.8	90.6	194	87.6	497	135
C[C@]1(O)C[C@@H](c2nc(-c3ccc4ccc(-c5ccccc5)nc4c3)c3c(N)nccn32)C1 + NCC(=O)Nc1ccc(-n2nc(C(F)(F)F)cc2-c2ccc3c(ccc4ccccc43)c2)cc1 [OSU03012] (first compound 0.4 µM, partner dose 1 µM) as listed: 274	111	273	117	216	51.4	49.5	77.3	70.4
